Assay results reported in the supplement of paper PMC10849652.
Some of the results follow. Residues, ends and D or L forms follow the SMILES beside them. *: point of attachment. Cbz = O=C(OCc1ccccc1)*

Protein sequences, listed by entry. Tags and fused reporters are not part of them. Lines headed by an entry give the natural chain unless they say otherwise; changes in a name come on top.
UniProt O60701: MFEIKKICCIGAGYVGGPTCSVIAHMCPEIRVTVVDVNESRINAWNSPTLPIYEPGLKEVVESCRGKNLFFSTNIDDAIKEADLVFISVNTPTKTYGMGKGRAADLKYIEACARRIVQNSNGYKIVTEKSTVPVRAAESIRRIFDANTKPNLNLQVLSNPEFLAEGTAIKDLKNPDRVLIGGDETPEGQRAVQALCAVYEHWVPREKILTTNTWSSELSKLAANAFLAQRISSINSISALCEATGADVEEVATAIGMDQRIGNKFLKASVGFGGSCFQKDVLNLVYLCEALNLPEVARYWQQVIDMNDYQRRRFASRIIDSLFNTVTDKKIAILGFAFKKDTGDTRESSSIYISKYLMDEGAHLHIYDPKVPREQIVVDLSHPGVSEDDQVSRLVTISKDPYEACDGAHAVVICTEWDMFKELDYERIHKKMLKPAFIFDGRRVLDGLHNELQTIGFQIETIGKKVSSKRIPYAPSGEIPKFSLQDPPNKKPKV
UniProt P61960, whole entry, looked up: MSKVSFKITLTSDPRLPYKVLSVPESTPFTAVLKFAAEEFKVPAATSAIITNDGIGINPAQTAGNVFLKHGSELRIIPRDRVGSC
UniProt O95292, whole entry, looked up: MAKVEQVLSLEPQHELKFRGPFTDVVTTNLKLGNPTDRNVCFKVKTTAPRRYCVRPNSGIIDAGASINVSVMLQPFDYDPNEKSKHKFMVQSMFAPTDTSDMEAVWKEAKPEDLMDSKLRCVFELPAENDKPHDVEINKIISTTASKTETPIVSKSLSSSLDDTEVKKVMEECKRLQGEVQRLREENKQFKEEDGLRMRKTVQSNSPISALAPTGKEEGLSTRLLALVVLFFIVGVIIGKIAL
UniProt O94966: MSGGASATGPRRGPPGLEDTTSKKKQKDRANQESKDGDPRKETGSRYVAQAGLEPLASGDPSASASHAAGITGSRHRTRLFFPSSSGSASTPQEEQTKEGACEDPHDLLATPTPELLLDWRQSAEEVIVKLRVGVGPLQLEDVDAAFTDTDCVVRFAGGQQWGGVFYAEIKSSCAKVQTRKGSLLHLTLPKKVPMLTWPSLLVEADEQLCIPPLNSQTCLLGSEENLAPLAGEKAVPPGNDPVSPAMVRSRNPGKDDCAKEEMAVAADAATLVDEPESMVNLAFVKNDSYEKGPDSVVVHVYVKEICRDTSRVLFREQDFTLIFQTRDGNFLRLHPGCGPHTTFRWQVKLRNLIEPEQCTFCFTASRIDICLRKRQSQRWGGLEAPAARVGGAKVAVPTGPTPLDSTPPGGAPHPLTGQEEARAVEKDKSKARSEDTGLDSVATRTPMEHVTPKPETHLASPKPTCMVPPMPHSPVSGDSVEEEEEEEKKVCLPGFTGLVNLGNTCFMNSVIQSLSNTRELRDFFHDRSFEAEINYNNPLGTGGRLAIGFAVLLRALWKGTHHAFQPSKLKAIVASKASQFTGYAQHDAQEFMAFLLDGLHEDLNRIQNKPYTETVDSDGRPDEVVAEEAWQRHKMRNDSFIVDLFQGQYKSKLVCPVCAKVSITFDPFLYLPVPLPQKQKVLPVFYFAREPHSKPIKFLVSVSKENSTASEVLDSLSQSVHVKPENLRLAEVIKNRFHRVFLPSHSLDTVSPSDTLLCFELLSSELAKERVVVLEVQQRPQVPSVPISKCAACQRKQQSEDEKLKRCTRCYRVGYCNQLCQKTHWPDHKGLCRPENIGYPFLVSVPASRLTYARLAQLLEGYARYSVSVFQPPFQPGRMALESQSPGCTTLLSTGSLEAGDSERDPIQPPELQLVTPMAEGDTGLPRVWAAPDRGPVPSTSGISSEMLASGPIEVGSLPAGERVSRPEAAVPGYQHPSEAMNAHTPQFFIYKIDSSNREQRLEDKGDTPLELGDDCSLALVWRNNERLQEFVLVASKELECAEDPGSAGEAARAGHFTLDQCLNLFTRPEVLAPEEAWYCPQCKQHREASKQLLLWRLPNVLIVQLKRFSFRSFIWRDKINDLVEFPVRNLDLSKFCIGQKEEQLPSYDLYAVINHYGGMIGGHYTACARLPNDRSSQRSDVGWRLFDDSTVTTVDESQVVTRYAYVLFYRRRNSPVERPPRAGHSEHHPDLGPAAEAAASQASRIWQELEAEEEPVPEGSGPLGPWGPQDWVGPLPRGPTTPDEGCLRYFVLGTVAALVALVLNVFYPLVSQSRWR
UniProt Q9Y6I4: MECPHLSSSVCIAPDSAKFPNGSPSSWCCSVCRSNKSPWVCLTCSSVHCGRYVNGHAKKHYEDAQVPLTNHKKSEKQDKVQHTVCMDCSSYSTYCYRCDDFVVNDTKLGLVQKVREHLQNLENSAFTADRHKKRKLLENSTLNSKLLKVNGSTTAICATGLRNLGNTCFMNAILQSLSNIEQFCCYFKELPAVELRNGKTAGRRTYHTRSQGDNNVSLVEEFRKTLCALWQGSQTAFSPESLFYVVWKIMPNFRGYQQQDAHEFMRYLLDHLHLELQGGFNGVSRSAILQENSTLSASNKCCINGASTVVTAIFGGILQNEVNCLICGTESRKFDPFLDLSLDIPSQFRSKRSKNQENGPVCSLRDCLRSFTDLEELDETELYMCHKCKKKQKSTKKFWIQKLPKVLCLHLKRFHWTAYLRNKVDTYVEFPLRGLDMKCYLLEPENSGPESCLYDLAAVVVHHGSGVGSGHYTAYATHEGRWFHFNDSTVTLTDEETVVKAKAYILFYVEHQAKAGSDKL
UniProt Q16880: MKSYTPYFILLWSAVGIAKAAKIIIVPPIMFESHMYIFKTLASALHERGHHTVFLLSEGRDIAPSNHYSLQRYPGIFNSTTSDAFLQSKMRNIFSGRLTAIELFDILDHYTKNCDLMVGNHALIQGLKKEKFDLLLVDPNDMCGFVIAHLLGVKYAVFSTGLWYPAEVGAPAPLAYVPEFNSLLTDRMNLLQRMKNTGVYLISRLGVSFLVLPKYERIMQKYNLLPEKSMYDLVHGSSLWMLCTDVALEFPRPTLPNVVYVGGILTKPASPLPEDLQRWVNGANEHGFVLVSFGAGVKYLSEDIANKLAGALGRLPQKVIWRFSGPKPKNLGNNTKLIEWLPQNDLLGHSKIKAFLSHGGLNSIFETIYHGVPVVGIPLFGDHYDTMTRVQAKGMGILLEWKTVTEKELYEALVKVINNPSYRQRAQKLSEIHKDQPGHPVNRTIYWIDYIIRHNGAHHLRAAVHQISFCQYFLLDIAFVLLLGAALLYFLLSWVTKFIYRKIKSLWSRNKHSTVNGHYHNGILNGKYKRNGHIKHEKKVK
UniProt Q9NRR5, whole entry, looked up: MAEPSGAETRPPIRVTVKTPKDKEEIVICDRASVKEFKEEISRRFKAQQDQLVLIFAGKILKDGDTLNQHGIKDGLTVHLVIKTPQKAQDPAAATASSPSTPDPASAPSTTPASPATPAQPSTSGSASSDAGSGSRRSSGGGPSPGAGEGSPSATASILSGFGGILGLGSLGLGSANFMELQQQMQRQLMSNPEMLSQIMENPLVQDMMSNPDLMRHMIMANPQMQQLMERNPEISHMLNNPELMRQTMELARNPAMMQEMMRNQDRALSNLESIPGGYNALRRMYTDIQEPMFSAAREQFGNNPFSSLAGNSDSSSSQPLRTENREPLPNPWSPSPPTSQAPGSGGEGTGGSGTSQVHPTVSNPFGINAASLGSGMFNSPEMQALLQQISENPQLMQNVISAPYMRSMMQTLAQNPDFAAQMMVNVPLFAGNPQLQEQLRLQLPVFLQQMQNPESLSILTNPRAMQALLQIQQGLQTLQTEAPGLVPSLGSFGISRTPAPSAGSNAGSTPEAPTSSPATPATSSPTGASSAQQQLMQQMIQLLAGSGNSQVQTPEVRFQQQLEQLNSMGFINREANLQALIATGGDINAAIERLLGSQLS
UniProt P18206: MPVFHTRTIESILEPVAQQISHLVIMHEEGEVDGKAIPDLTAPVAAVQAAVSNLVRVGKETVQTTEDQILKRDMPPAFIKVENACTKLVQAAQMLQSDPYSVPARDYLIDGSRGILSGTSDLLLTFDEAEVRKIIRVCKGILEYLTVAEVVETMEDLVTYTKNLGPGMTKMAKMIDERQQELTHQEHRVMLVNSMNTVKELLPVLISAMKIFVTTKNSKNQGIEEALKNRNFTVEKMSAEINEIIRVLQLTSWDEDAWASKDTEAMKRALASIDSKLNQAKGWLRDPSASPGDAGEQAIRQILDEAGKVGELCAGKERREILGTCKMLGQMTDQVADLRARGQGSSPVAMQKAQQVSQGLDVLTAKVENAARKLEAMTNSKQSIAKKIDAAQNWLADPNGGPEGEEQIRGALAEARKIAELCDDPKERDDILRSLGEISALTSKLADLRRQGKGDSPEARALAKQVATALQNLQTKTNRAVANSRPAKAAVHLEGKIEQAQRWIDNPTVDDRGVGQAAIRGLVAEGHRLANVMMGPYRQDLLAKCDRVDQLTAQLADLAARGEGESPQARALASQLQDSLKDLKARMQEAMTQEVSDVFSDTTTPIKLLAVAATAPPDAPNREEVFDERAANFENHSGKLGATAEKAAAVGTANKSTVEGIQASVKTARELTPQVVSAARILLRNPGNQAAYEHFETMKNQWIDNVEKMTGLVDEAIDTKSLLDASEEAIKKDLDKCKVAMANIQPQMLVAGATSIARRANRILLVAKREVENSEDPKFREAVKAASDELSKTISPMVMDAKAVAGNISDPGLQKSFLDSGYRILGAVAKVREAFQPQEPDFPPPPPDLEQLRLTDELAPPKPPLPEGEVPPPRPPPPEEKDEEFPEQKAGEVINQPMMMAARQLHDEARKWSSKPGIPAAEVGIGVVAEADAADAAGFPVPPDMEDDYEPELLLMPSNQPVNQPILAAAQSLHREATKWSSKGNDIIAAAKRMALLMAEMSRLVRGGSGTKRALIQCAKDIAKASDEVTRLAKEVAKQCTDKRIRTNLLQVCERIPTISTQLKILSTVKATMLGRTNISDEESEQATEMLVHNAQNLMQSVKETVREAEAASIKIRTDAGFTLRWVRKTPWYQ

Assays:
Assay in all cases: log2 fold change, soluble protein after heating vs DMSO (PISA); higher = thermal stabilisation; K562 cells, 10 uM, 30 min; active = over 0.2 and 3.5 SD of the protein, either way, in both replicates (recomputed)
erlotinib = compound: C#Cc1cccc(Nc2ncnc3cc(OCCOC)c(OCCOC)cc23)c1 [erlotinib]
Outline: (§1)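 K562 cells at 2×10^6 cells/mL were given 10 μM compound for 30 min. Aliquots then went through 3 min of heating across 48°C-58°C, were pooled, and were extracted in PBS with 0.5% NP-40 at 4°C, and the supernatant after 21,000xg for 90 min was quantified by TMTpro 16plex LC-MS/MS with channel sums equalised. Thermal stability relative to control samples, from duplicates, is given as log2 fold change.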

[1] = compound: C/C(=N\NC(=O)C1=CC(=CC=C1)S(=O)(=O)N2CCOCC2)/C3=C(C=CC(=C3)Cl)O
Outline: as §1

[2] = compound: C1=CC(=C(C=C1Cl)C2=NC3=NC=CN=C3C(=N2)NC4=CC=NC=C4)F
Outline: as §1

[3] = compound: C1=CC(=CC=C1C2=NC3=C(N2)C=C(C=C3)C(=O)N)OC4=CC=C(C=C4)Cl
Outline: as §1

[4] = compound: C1=CC2=C(C=CC(=C2)/C=C\3/C(=O)NC(=NCC4=CC=CS4)S3)N=C1
Outline: as §1

[5] = compound: C1=CC2=NC=CN=C2C=C1/C=C/3\C(=O)NC(=O)S3
Outline: as §1

[6] = compound: C1=CC=C(C=C1)C2=NC(=C(N2)C3=CC=NC=C3)C4=CC(=C(C=C4)Cl)O
Outline: as §1

[7] = compound: C1=CC=C2C(=C1)C3=NNC4=CC=CC(=C43)C2=O
Outline: as §1

[8] = compound: C1CCN(C1)C(=O)NC2=CC=CC(=C2)NC3=NC=C(C(=N3)NCCC4=CN=CN4)Br
Outline: as §1

[9] = compound: C1CN(CCC1(CC2=CC=C(C=C2)Cl)N)C3=NC=NC4=C3C=CN4
Outline: as §1

IRAK-1-4 Inhibitor I = compound: C1COCCN1CCN2C3=CC=CC=C3N=C2NC(=O)C4=CC(=CC=C4)[N+](=O)[O-] [IRAK-1-4 Inhibitor I]
Outline: as §1

ibrutinib = compound: C=CC(=O)N1CCC[C@@H](n2nc(-c3ccc(Oc4ccccc4)cc3)c3c(N)ncnc32)C1 [ibrutinib]
Outline: as §1

[10] = compound: CC(=O)c1cnc2ccc(-c3cc(Cl)c(O)c(Cl)c3)nc2c1N[C@H]1CC[C@H](CN(C)C)CC1
Outline: as §1

ralimetinib = compound: CC(C)(C)Cn1c(N)nc2ccc(-c3[nH]c(C(C)(C)C)nc3-c3ccc(F)cc3)nc21 [ralimetinib]
Outline: as §1

[11] = compound: CC(C)(O)CC(=O)NCCn1ccc2ncnc(Nc3ccc(Oc4cccc(C(F)(F)F)c4)c(Cl)c3)c21
Outline: as §1

[12] = compound: CC(C)C1=C2N=C(C=C(N2N=C1)NCC3=CC=CC=C3)NCCCCCCN
Outline: as §1

[13] = compound: CC(C)C[C@@H](C=O)NC(=O)[C@H](CC(C)C)NC(=O)[C@H](CC(C)C)NC(=O)OCc1ccccc1
Outline: as §1

pinometostat = compound: CC(C)N(C[C@H]1O[C@@H](n2cnc3c(N)ncnc32)[C@H](O)[C@@H]1O)[C@H]1C[C@@H](CCc2nc3cc(C(C)(C)C)ccc3[nH]2)C1 [pinometostat]
Outline: as §1

[14] = compound: CC1=C(C2=C(C=C1)C(=O)C3=CC=CC=C3N2CCCN)C
Outline: as §1

[15] = compound: CC1=C(C(CC(=O)N1)C2=CC=C(C=C2)C(F)(F)F)C(=O)NC3=C(C=C4C(=C3)C=NN4)F
Outline: as §1

| Target | log2 fold change (erlotinib) | log2 fold change [1] | log2 fold change [2] | log2 fold change [3] | log2 fold change [4] | log2 fold change [5] | log2 fold change [6] | log2 fold change [7] | log2 fold change [8] | log2 fold change [9] | log2 fold change (IRAK-1-4 Inhibitor I) | log2 fold change (ibrutinib) | log2 fold change [10] | log2 fold change (ralimetinib) | log2 fold change [11] | log2 fold change [12] | log2 fold change [13] | log2 fold change (pinometostat) | log2 fold change [14] | log2 fold change [15] |
| --- | --- | --- | --- | --- | --- | --- | --- | --- | --- | --- | --- | --- | --- | --- | --- | --- | --- | --- | --- | --- |
| UGDH (UniProt O60701) | inactive: 0.004 | inactive: 0.134 | inactive: 0.128 | inactive: 0.023 | inactive: 0.046 | inactive: -0.174 | inactive: 0.017 | inactive: 0.043 | inactive: -0.063 | inactive: 0.009 | inactive: -0.019 | inactive: 0.03 | active: -0.616 | inactive: -0.046 | inactive: -0.038 | inactive: 0.017 | inactive: -0.043 | inactive: -0.105 | inactive: 0.078 | – |
| UFM1 (UniProt P61960) | inactive: 0.026 | inactive: 0.072 | inactive: 0.093 | inactive: 0.064 | inactive: -0.015 | inactive: -0.002 | inactive: 0.12 | inactive: 0.172 | inactive: -0.297 | inactive: 0.088 | inactive: 0.219 | inactive: 0.026 | inactive: 0.003 | inactive: 0 | inactive: -0.117 | inactive: 0.06 | inactive: 0.055 | inactive: 0.013 | inactive: 0.133 | – |
| VAPB (UniProt O95292) | inactive: -0.002 | inactive: 0.03 | inactive: 0.119 | inactive: -0.004 | inactive: -0.044 | inactive: 0.007 | inactive: -0.036 | inactive: 0.005 | inactive: -0.003 | inactive: 0.041 | inactive: 0.004 | inactive: 0.015 | inactive: -0.007 | inactive: -0.135 | inactive: -0.003 | inactive: 0.045 | inactive: 0.07 | inactive: -0.044 | inactive: 0.007 | inactive: -0.008 |
| USP19 isoform 6 (UniProt O94966) | inactive: 0.002 | inactive: 0.073 | inactive: 0.055 | inactive: 0.021 | inactive: 0.025 | inactive: 0.006 | inactive: -0.038 | inactive: -0.016 | inactive: -0.019 | inactive: 0.018 | inactive: 0.031 | inactive: -0.02 | inactive: -0.013 | inactive: -0.006 | inactive: -0.038 | inactive: -0.006 | inactive: 0.008 | inactive: -0.025 | inactive: 0.02 | inactive: 0 |
| USP3 (UniProt Q9Y6I4) | inactive: 0.099 | inactive: 0.114 | inactive: 0.121 | inactive: 0.004 | inactive: -0.062 | inactive: 0.014 | inactive: 0.057 | inactive: -0.052 | inactive: 0.007 | inactive: 0.095 | inactive: 0.035 | inactive: -0.083 | inactive: -0.126 | inactive: -0.013 | inactive: -0.107 | inactive: -0.146 | inactive: -0.145 | inactive: -0.075 | inactive: -0.006 | – |
| UGT8 (UniProt Q16880) | inactive: -0.027 | inactive: 0.009 | inactive: -0.057 | inactive: -0.076 | inactive: -0.078 | inactive: -0.124 | inactive: 0.241 | inactive: -0.098 | inactive: -0.019 | inactive: -0.036 | inactive: -0.043 | inactive: 0.014 | inactive: 0.04 | inactive: 0.088 | inactive: 0.323 | inactive: 0.178 | inactive: -0.011 | inactive: 0.106 | inactive: 0.054 | inactive: -0.138 |
| UBQLN4 (UniProt Q9NRR5) | inactive: 0.016 | inactive: -0.005 | inactive: 0.116 | inactive: -0.008 | inactive: -0.054 | inactive: 0.075 | inactive: 0.013 | inactive: 0.005 | inactive: -0.049 | inactive: 0.041 | inactive: -0.015 | inactive: 0.03 | inactive: 0.043 | inactive: 0.043 | inactive: -0.078 | inactive: 0.084 | inactive: -0.014 | inactive: -0.077 | inactive: 0.05 | inactive: 0.025 |
| VCL (UniProt P18206) | inactive: 0.009 | inactive: -0.014 | inactive: 0.066 | inactive: -0.009 | inactive: -0.042 | inactive: 0.023 | inactive: 0.031 | inactive: -0.016 | inactive: 0.004 | inactive: 0.049 | inactive: 0.015 | inactive: -0.017 | inactive: 0.017 | inactive: -0.012 | inactive: 0.025 | inactive: 0.057 | inactive: -0.017 | inactive: -0.067 | inactive: -0.013 | inactive: 0.024 |
